T1: HaHSFA9:YFP^C (sunflower (Helianthus annuus))
T1 construct: also called HaHSFA9 (non-fluorescent)
T1 chain: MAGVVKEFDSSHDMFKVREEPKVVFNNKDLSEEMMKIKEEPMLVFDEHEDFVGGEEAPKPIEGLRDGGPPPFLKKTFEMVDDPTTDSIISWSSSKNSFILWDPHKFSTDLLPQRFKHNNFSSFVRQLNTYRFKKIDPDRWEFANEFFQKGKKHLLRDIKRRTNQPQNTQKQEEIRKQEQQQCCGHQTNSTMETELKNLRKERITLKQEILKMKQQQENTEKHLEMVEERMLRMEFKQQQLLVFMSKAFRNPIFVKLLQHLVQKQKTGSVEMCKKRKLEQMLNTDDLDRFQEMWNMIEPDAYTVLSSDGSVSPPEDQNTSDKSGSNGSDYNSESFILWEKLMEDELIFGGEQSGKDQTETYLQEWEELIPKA

T2: HaHSFA4 prey (plasmid pGAD424-HaHSFA4) (sunflower (Helianthus annuus))
T2 construct: also called Prey, HSFA4; not shown: fusion partner encoded by the prey vector pGAD424
T2 chain: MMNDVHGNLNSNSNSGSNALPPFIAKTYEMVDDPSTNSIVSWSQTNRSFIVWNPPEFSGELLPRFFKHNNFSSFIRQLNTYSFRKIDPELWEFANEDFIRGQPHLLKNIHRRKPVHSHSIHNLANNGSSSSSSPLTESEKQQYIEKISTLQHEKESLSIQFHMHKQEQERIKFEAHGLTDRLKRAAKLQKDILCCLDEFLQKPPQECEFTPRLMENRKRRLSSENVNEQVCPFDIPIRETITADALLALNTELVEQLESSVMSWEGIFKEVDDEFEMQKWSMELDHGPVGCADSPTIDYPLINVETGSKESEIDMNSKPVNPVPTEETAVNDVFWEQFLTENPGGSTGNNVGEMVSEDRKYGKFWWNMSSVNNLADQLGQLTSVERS


Key:
HaHSFA9:YFP^C = target: T1, HaHSFA9:YFP^C; assay: BiFC in N. benthamiana leaves, confocal microscopy
Procedure: 48 h after infiltration, disc sections from the infiltrated leaves were analyzed.
For the experiments in FIG. 16, BiFC was studied under a Leica TCS-SP2 confocal laser-scanning microscope with a HC PL FLUOTAR 20×/0.50 objective. Applicants used standard YFP excitation and detection settings. Image analysis was carried out with Leica LCS software and Adobe Photoshop 7.0. […] The HaHSFA9, HaHSFA4, and hybrid-HSF sequences fused to the non-fluorescent YFP-halves in these constructs were PCR-amplified from the respective effector plasmids used for the transient activation assays (see below). […] The same amount of pBI221 plasmid was used as a negative control.

[1] = target: T2, HaHSFA4 prey (plasmid pGAD424-HaHSFA4); assay: yeast two-hybrid, growth on selective medium (-His)

| Binder | binding result (HaHSFA9:YFP^C) | binding result [1] |
| --- | --- | --- |
| HaHSFA9:YFP^N (other, not shown: large carriers, also called HaHSFA9 SPYNE fusion) MAGVVKEFDSSHDMFKVREEPKVVFNNKDLSEEMMKIKEEPMLVFDEHEDFVGGEEAPKPIEGLRDGGPPPFLKKTFEMVDDPTTDSIISWSSSKNSFILWDPHKFSTDLLPQRFKHNNFSSFVRQLNTYRFKKIDPDRWEFANEFFQKGKKHLLRDIKRRTNQPQNTQKQEEIRKQEQQQCCGHQTNSTMETELKNLRKERITLKQEILKMKQQQENTEKHLEMVEERMLRMEFKQQQLLVFMSKAFRNPIFVKLLQHLVQKQKTGSVEMCKKRKLEQMLNTDDLDRFQEMWNMIEPDAYTVLSSDGSVSPPEDQNTSDKSGSNGSDYNSESFILWEKLMEDELIFGGEQSGKDQTETYLQEWEELIPKA | binds | – |
| HaHSFA9Δ166 (bait plasmid pGBT9-HaHSFA9Δ166) (other, N-terminal extension and DBD of HaHSFA9 without the OD; also called HaHSFA9Δ165; bait construct 3; not shown: fusion partner encoded by the bait vector pGBT9) MAGVVKEFDSSHDMFKVREEPKVVFNNKDLSEEMMKIKEEPMLVFDEHEDFVGGEEAPKPIEGLRDGGPPPFLKKTFEMVDDPTTDSIISWSSSKNSFILWDPHKFSTDLLPQRFKHNNFSSFVRQLNTYRFKKIDPDRWEFANEFFQKGKKHLLRDIKRRTNQPQ | – | no binding |

Reference: patent US20160010105A1 (CONSEJO SUPERIOR DE INVESTIGACIONES CIENTIFICAS CSIC, published 2016)
